Some of the results follow.

Chains of the proteins cited; added tags and fusions are not shown. Lines headed by an entry give the natural chain unless they say otherwise; changes in a name come on top.
UniProt Q9HD34: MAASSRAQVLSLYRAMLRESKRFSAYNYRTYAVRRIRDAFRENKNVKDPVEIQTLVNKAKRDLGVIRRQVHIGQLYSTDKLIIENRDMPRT
UniProt O15479: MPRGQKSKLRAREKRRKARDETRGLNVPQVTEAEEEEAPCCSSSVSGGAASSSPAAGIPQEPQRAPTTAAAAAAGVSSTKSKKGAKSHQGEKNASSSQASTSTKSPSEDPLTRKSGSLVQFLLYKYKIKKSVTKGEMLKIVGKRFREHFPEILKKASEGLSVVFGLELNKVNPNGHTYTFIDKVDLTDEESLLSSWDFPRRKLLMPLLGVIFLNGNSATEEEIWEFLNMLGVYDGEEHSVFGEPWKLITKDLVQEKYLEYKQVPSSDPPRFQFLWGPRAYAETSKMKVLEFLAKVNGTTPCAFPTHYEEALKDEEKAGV
UniProt O00462: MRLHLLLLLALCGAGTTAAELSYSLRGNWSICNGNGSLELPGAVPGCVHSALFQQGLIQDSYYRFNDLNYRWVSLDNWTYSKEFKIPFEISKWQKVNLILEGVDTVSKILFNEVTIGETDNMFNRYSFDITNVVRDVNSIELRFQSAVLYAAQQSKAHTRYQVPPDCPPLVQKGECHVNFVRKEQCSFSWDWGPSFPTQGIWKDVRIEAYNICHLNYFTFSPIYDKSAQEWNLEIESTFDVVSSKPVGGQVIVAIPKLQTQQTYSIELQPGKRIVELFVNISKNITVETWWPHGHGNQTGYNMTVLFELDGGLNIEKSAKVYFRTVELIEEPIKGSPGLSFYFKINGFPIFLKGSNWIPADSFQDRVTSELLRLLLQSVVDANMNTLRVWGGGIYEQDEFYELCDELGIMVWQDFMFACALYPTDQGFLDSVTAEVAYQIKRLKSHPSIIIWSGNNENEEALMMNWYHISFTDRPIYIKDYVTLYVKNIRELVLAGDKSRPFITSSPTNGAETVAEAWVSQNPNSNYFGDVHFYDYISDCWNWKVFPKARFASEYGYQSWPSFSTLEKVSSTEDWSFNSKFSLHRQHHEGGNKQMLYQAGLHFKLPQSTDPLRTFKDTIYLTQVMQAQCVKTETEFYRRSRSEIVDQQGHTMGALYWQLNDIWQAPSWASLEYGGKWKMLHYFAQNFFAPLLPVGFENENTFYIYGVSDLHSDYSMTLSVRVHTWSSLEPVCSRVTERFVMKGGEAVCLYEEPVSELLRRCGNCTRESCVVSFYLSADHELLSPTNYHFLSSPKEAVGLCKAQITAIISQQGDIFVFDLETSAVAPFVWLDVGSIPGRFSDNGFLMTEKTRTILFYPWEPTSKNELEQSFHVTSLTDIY
UniProt Q3KQU3: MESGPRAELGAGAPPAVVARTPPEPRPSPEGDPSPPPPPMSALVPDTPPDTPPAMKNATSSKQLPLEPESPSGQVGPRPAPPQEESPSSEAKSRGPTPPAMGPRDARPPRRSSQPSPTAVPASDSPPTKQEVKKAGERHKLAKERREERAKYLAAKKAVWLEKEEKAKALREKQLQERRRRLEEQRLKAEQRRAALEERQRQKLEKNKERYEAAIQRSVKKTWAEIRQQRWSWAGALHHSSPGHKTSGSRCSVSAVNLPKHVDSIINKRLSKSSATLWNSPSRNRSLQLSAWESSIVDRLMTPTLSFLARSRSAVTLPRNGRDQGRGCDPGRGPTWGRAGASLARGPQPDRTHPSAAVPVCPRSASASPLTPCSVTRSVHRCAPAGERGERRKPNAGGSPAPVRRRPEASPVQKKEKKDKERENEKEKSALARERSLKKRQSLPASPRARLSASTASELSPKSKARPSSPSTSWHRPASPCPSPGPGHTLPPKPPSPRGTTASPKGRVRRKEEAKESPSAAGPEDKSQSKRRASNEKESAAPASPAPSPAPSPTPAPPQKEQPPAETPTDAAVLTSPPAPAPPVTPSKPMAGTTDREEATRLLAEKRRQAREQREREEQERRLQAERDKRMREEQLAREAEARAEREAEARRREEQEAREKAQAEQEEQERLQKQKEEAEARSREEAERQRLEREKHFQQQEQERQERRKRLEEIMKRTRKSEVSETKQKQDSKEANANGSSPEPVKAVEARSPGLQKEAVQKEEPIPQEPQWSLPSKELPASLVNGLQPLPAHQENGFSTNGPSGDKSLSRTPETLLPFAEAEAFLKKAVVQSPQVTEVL
UniProt Q7L5Y9: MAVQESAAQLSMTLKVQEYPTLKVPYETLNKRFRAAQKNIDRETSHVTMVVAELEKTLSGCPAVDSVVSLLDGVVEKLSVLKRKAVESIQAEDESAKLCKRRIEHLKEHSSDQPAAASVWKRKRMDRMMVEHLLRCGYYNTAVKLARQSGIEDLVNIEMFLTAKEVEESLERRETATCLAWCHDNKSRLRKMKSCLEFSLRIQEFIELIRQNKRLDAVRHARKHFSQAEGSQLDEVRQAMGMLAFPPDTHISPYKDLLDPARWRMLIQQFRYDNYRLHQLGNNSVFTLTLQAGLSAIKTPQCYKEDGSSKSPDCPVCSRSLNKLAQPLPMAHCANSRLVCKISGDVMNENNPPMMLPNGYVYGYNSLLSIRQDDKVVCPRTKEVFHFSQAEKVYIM
UniProt O60337: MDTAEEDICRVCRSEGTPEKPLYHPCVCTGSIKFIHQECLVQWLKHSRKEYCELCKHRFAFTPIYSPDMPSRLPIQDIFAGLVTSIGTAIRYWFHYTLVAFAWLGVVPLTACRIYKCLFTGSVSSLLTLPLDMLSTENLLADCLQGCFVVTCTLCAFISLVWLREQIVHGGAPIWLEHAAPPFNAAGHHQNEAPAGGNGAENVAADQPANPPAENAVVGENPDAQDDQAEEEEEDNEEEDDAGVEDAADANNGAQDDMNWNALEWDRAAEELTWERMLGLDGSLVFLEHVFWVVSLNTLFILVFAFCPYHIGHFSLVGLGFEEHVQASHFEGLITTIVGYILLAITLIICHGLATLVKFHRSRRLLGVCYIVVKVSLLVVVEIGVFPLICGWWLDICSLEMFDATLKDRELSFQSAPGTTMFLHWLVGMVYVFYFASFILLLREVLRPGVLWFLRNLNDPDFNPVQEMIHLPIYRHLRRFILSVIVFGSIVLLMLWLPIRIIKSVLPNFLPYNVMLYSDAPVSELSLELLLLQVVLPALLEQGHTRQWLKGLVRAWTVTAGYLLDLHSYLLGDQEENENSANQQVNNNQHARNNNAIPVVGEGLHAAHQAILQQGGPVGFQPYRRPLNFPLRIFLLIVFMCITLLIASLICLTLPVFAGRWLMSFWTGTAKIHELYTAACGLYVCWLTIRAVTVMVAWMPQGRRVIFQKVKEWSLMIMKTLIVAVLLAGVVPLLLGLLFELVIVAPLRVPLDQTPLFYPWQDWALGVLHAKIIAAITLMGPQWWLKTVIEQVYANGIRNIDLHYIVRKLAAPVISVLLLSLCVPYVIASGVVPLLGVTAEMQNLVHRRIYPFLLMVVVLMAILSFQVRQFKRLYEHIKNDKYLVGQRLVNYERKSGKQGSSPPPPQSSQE
UniProt Q8IWT6: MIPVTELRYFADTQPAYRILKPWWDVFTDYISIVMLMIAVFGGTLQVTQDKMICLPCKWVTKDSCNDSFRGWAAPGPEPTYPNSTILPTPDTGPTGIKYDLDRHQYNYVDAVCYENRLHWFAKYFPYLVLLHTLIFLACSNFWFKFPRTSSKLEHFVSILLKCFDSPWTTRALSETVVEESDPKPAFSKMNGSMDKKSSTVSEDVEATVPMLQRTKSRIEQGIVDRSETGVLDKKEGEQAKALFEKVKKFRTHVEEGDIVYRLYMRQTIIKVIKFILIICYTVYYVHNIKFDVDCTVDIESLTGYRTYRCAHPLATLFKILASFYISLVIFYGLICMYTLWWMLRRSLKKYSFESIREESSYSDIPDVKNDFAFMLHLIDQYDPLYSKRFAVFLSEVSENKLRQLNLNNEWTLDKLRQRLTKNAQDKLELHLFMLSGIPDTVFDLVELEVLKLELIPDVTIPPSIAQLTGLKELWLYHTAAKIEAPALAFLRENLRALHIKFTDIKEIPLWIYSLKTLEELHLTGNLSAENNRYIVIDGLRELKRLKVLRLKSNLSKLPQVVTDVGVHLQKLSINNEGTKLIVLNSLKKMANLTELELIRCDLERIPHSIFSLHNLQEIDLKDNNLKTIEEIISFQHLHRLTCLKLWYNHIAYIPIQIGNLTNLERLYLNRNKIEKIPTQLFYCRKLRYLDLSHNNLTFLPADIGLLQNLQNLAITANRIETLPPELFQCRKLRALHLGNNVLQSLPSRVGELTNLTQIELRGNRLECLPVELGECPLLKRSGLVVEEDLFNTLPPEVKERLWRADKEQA
UniProt Q9H0U3: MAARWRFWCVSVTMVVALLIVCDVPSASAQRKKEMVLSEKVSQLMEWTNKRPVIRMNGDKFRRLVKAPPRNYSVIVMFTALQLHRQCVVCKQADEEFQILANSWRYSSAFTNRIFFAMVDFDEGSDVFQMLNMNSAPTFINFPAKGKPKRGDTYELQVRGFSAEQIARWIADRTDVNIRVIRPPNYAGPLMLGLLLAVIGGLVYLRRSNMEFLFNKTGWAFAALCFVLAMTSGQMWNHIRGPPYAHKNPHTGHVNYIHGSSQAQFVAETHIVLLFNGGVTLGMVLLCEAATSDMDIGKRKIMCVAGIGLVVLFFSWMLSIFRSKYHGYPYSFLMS
UniProt P62312: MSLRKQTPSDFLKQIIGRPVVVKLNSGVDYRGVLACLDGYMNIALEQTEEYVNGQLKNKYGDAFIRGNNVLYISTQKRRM
UniProt Q9Y333: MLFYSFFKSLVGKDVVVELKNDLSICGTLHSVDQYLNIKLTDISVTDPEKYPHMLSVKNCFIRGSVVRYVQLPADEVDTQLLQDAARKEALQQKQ
UniProt P45985: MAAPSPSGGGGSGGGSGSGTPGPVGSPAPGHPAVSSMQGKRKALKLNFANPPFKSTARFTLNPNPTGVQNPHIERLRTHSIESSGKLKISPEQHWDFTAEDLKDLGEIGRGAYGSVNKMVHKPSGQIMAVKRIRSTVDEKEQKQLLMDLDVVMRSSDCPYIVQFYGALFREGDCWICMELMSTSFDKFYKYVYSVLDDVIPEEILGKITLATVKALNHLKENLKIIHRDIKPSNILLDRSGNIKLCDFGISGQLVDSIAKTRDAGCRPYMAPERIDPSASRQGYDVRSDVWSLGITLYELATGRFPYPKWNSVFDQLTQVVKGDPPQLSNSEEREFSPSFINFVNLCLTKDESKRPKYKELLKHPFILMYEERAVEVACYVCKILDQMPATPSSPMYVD
UniProt Q9NTJ4: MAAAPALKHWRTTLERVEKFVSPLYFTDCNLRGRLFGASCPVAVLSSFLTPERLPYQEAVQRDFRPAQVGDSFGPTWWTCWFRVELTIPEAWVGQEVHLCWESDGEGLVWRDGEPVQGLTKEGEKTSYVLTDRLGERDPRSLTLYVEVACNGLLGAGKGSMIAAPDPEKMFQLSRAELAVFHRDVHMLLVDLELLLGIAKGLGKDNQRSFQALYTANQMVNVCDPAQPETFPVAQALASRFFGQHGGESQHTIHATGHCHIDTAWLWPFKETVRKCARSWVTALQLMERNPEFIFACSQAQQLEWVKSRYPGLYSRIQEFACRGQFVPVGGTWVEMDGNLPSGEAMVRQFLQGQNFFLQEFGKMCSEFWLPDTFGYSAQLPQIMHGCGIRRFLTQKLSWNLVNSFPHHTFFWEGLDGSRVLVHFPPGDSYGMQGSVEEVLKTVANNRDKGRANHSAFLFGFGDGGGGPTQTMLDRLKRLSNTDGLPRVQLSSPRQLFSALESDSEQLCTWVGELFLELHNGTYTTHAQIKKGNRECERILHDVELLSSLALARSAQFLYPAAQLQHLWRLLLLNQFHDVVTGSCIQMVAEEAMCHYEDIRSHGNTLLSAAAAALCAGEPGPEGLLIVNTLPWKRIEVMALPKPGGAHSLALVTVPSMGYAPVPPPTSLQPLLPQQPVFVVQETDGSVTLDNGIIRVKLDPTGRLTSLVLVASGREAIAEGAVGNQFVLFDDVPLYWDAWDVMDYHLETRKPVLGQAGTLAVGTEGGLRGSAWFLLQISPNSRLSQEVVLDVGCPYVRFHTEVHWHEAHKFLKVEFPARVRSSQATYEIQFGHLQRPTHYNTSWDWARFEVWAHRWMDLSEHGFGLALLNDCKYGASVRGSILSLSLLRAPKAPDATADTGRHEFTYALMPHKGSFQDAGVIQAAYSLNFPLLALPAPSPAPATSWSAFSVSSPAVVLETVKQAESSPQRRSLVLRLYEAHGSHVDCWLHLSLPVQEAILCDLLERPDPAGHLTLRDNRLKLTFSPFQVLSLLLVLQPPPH
UniProt P28482, whole entry, looked up: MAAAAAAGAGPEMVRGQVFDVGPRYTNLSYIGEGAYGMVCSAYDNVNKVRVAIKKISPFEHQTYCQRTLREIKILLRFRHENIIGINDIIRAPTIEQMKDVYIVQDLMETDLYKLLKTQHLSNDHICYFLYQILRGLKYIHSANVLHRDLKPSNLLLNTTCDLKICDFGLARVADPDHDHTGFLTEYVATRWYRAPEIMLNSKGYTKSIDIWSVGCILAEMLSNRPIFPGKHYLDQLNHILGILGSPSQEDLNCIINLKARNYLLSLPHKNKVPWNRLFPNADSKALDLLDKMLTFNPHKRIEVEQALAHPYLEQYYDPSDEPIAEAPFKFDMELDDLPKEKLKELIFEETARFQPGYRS

Compound in this test: CC(C)(C)Cn1c(N)nc2ccc(-c3[nH]c(C(C)(C)C)nc3-c3ccc(F)cc3)nc21 [ralimetinib]
The test is described as follows: log2 fold change, soluble protein after heating vs DMSO (PISA); higher = thermal stabilisation; K562 cells, 10 uM, 30 min; active = over 0.2 and 3.5 SD of the protein, either way, in both replicates (recomputed). Summed up: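 K562 cells at 2×10^6 cells/mL were given 10 μM compound for 30 min. Aliquots then went through 3 min of heating across 48°C-58°C, were pooled, and were extracted in PBS with 0.5% NP-40 at 4°C, and the supernatant after 21,000xg for 90 min was quantified by TMTpro 16plex LC-MS/MS with channel sums equalised. Thermal stability relative to control samples, from duplicates, is given as log2 fold change.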
As for LYRM4 (UniProt Q9HD34), the log2 fold change was inactive: -0.04.
As for MAGEB2 (UniProt O15479), the log2 fold change is inactive: 0.085.
Consider MAP1A isoform 2 (UniProt P78559), for which the log2 fold change was inactive: 0.118.
In the case of MANBA (UniProt O00462) it was inactive: 0.015.
On to MAP7D1 (UniProt Q3KQU3), for which the log2 fold change is inactive: 0.227.
The result for MAEA (UniProt Q7L5Y9) reads inactive: 0.028.
For MARCHF6 (UniProt O60337), the log2 fold change is inactive: 0.033.
Consider LRRC8A (UniProt Q8IWT6), for which the log2 fold change is inactive: 0.056.
The result for MAGT1 (UniProt Q9H0U3) reads inactive: 0.006.
With M6PR (UniProt P20645), the log2 fold change was inactive: 0.004.
In the case of LSM6 (UniProt P62312) it was inactive: 0.017; in that of LSM2 (UniProt Q9Y333), inactive: -0.047; in that of MACF1 (UniProt H3BQK9), inactive: 0.
As for LYZ (UniProt P61626), the log2 fold change was inactive: -0.028.
Consider MAP2K4 isoform 2 (UniProt P45985), for which the log2 fold change was inactive: -0.003.
The result for LRRFIP2 (UniProt Q9Y608) reads inactive: 0.001.
Regarding MAN2C1 isoform 4 (UniProt Q9NTJ4), the log2 fold change was inactive: -0.04.
In the case of LRSAM1 (UniProt Q6UWE0) it was inactive: 0.051; in that of MAN2A1 (UniProt Q16706), inactive: -0.032.
For LSM4 (UniProt Q9Y4Z0), the log2 fold change was inactive: -0.037.
With MAPK1 (UniProt P28482), the log2 fold change was inactive: -0.035.
The result for MACO1 (UniProt Q8N5G2) reads inactive: 0.052.
As for MAN2A2 (UniProt P49641), the log2 fold change was inactive: 0.059.

The record behind these values is the supplement of paper PMC10849652.
